Inconclusive results, whose numbers are uncertain, are shown with a selection of clear calls. Potencies of inconclusive entries are doubtful fits and often do not repeat. Active and inactive are the calls of the source. The call rests on the fitted dose curve; in most records, active means well fitted cell-killing curve with a large enough effect; inconclusive means small, poorly fitted or top-dose-only effect, or effect the other way; inactive means no such curve, though single readings can be large or run the other way.
Legend:
[1] = Quantitative High-Throughput drug screen in 47 multiple myeloma cell lines against the NCATS MIPE library collection: Karpas417_ECACC cell viability assay (AID 1918961); conditions: Karpas417 myeloma viability, CellTiter-Glo ATP luminescence, 48 h; viability (% of DMSO): at 45.8 µM (top of the series)
In short: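 Myeloma cells (500 per well) were exposed to MIPE 4.0 compounds by pin transfer and incubated 48 hours at 37C, 5% CO2. Viability was read as ATP by CellTiter-Glo luminescence, normalised to DMSO (100%) and media-only (0%) wells.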

[2] = Quantitative High-Throughput drug screen in 47 multiple myeloma cell lines against the NCATS MIPE library collection: ARD_JJKsccE7 cell viability assay (AID 1918929); conditions: ARD myeloma cell line viability, CellTiter-Glo, 48 h; viability: at 45.8 µM (top of the series)
In short: (§1)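 Luminescent ATP measurement with CellTiter-Glo gives viability, scaled between DMSO-only wells (100%) and media-only wells (0%). Cells, 500 per well, faced library compounds for 48 hours at 37C.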

[3] = Quantitative High-Throughput drug screen in 47 multiple myeloma cell lines against the NCATS MIPE library collection: AMO1_DSMZ cell viability assay (AID 1918927; further: nearly all actives have a fitted effect of over 30% in size); conditions: AMO1 myeloma cells viability, CellTiter-Glo ATP luminescence, 48 h; series mostly up to 45.8 µM
In short: as §1

[4] = Quantitative High-Throughput drug screen in 47 multiple myeloma cell lines against the NCATS MIPE library collection: Karpas620_DSMZ cell viability assay (AID 1918959); conditions: Karpas620 myeloma viability, CellTiter-Glo ATP luminescence, 48 h; viability (% of DMSO): at 45.8 µM (top of the series); further: nearly all actives have a fitted effect of over 30% in size
In short: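 CellTiter-Glo luminescence (ATP) after 48 h compound exposure, 37C/5% CO2; 500 cells/well; MIPE 4.0 approved/investigational drugs pinned in; DMSO = 100%, media only = 0% viability.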

[5] = Quantitative High-Throughput drug screen in 47 multiple myeloma cell lines against the NCATS MIPE library collection: KMM1_JCRB cell viability assay (AID 1918960); conditions: KMM1 myeloma viability, CellTiter-Glo ATP luminescence, 48 h; viability (% of DMSO): at 45.8 µM (top of the series); further: nearly all actives have a fitted effect of over 30% in size
In short: (§2)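 Luminescence from CellTiter-Glo, taken after 5 min at room temperature, reports cellular ATP as viability. Cells (500 per well) had been treated 48 h at 37 °C with MIPE 4.0 compounds, scaled between DMSO and medium-only controls.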

[6] = Quantitative High-Throughput drug screen in 47 multiple myeloma cell lines against the NCATS MIPE library collection: ARP1_JJKsccF8 cell viability assay (AID 1918928; further: nearly all actives have a fitted effect of over 40% in size); conditions: ARP1 myeloma cells viability, CellTiter-Glo ATP, 48 h; viability: at 45.8 µM (top of the series)
In short: as §2
Potency means the concentration at half of the fitted maximal effect.

For CC(C=CC(=O)NO)=C[C@@H](C)C(=O)c1ccc(N(C)C)cc1, the Potency [1] was active: 0.105 µM.

For CCN(CC)CCCCNc1nc2cc(Cl)c(Cl)cc2nc1-c1ccc(-c2cccs2)s1, the Potency [2] was active: 8.33 µM and the Potency [1] was inconclusive: 9.35 µM [cytotoxic, full curve, poor fit].

For OCCn1cc(-c2ccc3c(c2)CCC3=NO)c(-c2ccncc2)n1, the Potency [3] was inconclusive: 0.0833 µM [cytotoxic, full curve, poor fit], the Potency [2] was active: 13.2 µM and the Potency [4] was inconclusive: 16.6 µM [cytotoxic, partial curve, poor fit]. For the same compound, the Potency [5] was inconclusive: 14.8 µM [cytotoxic, partial curve] and the Potency [1] was active: 8.33 µM.

For C[C@H](CCC(=O)O)[C@H]1CC[C@H]2[C@@H]3[C@H](O)C[C@@H]4C[C@H](O)CC[C@]4(C)[C@@H]3CC[C@]12C, the Potency [6] was “inactive”, the Potency [5] was “inactive” and the Potency [1] was inconclusive: 11.8 µM [cytotoxic, single point].

For COc1ccc2c(c1OC)C(=O)OC2[C@H]1c2c(cc3c(c2OC)OCO3)CCN1C (stereo not given in full), the Potency [6] was active: 0.0526 µM.

For C=C1c2cccc(O)c2C(O)=C2C(=O)[C@@]3(O)C(O)=C(C(N)=O)C(=O)[C@@H](N(C)C)[C@@H]3[C@@H](O)[C@H]12, the Potency [2] was inconclusive: 7.43 µM [rising, single point] and the Potency [1] was inconclusive: 9.35 µM [rising, single point].

For CCOCC(O)COc1ccc(NC(=O)CC[S+](C)C)cc1 (stereo not given), the Potency [2] was “inactive” and the Potency [4] was “inactive”.

With NC(=NCCCCCCN=C(N)N=C(N)Nc1ccc(Cl)cc1)N=C(N)Nc1ccc(Cl)cc1 the Potency [2] was inconclusive: 37.2 µM [cytotoxic, single point], the Potency [5] was active: 18.7 µM and the Potency [1] was active: 20.9 µM.

With COc1cccc2nc(-c3cccs3)nc(NN3C(=O)C=C(C)C3=O)c12 the Potency [3] was active: 0.0935 µM and the Potency [1] was active: 0.0526 µM.

With O=C(O)c1ccc2c(c1)nc(Nc1cccc(Cl)c1)c1ccncc12 the Potency [2] was active: 8.33 µM and the Potency [1] was active: 0.935 µM.

For COC(=O)Nc1nc2ccc(C(=O)c3ccccc3)cc2[nH]1, the Potency [3] was inconclusive: 0.296 µM [cytotoxic, full curve, poor fit], the Potency [2] was inconclusive: 0.469 µM [cytotoxic, full curve, poor fit] and the Potency [4] was inconclusive: 0.372 µM [cytotoxic, full curve, poor fit]. For the same compound, the Potency [5] was inconclusive: 0.418 µM [cytotoxic, full curve, poor fit] and the Potency [1] was inconclusive: 7.43 µM [cytotoxic, partial curve, poor fit].

For Nc1nc2c(ncn2COC(CO)CO)c(=O)[nH]1, the Potency [6] was inconclusive: 23.5 µM [cytotoxic, partial curve, poor fit], the Potency [2] was active: 4.18 µM and the Potency [4] was inconclusive: 29.6 µM [cytotoxic, single point]. For the same compound, the Potency [1] was active: 11.8 µM.

With c1nc2nc(Nc3ccc(N4CCOCC4)cc3)nc(NC3CCCCC3)c2[nH]1 the Potency [1] was active: 0.743 µM.

For CCOC(=O)C1=C(C)NC(=S)NC1c1cccc(O)c1 (stereo not given), the Potency [4] was inconclusive: 0.166 µM [cytotoxic, full curve].

With CC(C)[C@H](CO)Nc1nc(Nc2cccc(Cl)c2)c2ncn(C(C)C)c2n1 the Potency [3] was “inactive”, the Potency [2] was inconclusive: 2.64 µM [rising, full curve, poor fit] and the Potency [1] was inconclusive: 0.0059 µM [cytotoxic, full curve, poor fit].

For CS(=O)(=O)Nc1ccc([N+](=O)[O-])cc1Oc1ccccc1, the Potency [6] was active: 11.8 µM, the Potency [2] was inconclusive: 0.469 µM [cytotoxic, partial curve, poor fit] and the Potency [5] was “inactive”. For the same compound, the Potency [1] was inconclusive: 33.2 µM [rising, partial curve, poor fit].

In the case of Cn1cnc(=N)c2[nH]cnc21, the Potency [2] is reported as active: 0.105 µM and the Potency [1] is reported as active: 0.0235 µM.

In the case of CN(C)CCCN1c2ccccc2CCc2ccc(Cl)cc21, the Potency [6] is reported as inconclusive: 1.18 µM [cytotoxic, full curve, poor fit], the Potency [5] is reported as active: 11.8 µM and the Potency [1] is reported as inconclusive: 14.8 µM [cytotoxic, partial curve].

For Cc1cccc(-c2[nH]c(C(C)(C)C)nc2-c2ccc3c(c2)OCO3)n1, the Potency [1] was active: 1.66 µM.

In the case of COc1ccc(OC)c(-c2nnc3ccc(-c4ccc(OC)c(O[C@@H]5CCOC5)c4)nn23)c1, the Potency [6] is reported as active: 18.7 µM, the Potency [5] is reported as active: 8.33 µM and the Potency [1] is reported as active: 10.5 µM.
